Results on 1 sequence are retold here after article PMC4703070.

Amino acid sequences for entries named in this document (tags omitted). A change or cut given only in a name is not applied to a line headed by its entry.
UniProt P10443: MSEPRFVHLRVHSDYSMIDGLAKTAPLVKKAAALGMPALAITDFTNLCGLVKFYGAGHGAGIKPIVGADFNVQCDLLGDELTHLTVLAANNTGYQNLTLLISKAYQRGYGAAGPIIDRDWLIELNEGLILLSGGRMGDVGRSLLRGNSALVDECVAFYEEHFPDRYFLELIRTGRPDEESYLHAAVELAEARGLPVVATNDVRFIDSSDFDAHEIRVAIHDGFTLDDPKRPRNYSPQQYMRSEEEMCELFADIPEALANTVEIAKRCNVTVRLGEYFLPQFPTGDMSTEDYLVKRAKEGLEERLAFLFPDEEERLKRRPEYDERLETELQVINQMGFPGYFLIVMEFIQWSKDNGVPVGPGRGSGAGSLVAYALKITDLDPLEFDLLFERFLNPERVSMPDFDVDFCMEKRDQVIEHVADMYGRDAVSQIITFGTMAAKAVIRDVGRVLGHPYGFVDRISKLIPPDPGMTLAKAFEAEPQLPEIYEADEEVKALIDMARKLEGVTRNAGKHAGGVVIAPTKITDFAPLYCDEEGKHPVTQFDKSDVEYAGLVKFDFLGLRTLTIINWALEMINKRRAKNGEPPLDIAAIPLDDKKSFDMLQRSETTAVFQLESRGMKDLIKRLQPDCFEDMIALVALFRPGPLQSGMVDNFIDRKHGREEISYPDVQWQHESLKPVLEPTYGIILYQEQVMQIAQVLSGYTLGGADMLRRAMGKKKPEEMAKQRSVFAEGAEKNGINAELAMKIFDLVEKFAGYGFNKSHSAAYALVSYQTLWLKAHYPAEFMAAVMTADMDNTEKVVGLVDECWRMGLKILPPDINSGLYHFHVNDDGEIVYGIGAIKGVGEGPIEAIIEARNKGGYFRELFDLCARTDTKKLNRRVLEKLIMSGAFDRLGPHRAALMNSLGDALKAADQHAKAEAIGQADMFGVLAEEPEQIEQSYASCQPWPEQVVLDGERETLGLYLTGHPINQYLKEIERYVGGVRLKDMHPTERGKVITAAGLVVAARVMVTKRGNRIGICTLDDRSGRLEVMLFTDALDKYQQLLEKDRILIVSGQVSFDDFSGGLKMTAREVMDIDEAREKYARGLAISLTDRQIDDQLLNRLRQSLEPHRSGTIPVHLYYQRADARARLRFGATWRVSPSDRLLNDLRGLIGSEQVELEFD

This data set has as its target Pol IIIα (alone, EMSA) (Escherichia coli) (UniProt P10443). The experiment in a line: EMSA. The conditions noted are these: 2.5 μM protein, 5 nM DNA, text: surprisingly low affinity; phosphorothioate at 3' terminal bond (primer; strand implied); EMSA: 20 mM Tris pH 7.5, 4% glycerol, 5 mM DTT, 40 μg/ml BSA, 40 mM K glutamate, 10 min room temperature, native 6% gel; recombinant protein; label: 6-FAM at 5' end of primer strand. (A gel shift assay detects complexes by their altered migration in electrophoresis.)

The exact form of at least one protein or probe is not confirmed. Negatives hold for the conditions tested.

Take “TCAGGAGTCCTTCGTCCTAGTACTACTCC / GGAGTAGTACTAGGACGAAGGACTC [25 bp primer-template with 4 nt overhang (EMSA)]”: the binding result was “no binding”.
